Source: the supplement of paper PMC10849652
The other results are listed elsewhere or left out. Residues, ends and D or L forms follow the SMILES beside them. *: point of attachment. Cbz = O=C(OCc1ccccc1)*

Protein sequences, listed by entry. Tags and fused reporters are not part of them. Lines headed by an entry give the natural chain unless they say otherwise; changes in a name come on top.
UniProt Q9NVV0: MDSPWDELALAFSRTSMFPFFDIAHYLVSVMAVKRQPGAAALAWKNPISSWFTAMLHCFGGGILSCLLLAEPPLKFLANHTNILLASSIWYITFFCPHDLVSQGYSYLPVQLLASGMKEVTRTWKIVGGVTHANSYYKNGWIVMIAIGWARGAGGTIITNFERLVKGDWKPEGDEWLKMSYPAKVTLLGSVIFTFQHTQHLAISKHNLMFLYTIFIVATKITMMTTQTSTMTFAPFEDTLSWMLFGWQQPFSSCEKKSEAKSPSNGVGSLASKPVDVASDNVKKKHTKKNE
UniProt Q9HC07: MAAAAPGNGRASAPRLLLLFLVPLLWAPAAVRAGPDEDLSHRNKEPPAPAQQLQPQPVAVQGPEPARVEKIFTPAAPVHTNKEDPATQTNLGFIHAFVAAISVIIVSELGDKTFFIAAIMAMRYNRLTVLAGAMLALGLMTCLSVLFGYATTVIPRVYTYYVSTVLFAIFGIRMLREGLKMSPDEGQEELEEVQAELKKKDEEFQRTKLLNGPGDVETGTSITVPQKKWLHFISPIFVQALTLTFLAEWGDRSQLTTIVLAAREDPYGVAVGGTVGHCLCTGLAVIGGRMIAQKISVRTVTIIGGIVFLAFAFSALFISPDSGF
UniProt Q0P6H9: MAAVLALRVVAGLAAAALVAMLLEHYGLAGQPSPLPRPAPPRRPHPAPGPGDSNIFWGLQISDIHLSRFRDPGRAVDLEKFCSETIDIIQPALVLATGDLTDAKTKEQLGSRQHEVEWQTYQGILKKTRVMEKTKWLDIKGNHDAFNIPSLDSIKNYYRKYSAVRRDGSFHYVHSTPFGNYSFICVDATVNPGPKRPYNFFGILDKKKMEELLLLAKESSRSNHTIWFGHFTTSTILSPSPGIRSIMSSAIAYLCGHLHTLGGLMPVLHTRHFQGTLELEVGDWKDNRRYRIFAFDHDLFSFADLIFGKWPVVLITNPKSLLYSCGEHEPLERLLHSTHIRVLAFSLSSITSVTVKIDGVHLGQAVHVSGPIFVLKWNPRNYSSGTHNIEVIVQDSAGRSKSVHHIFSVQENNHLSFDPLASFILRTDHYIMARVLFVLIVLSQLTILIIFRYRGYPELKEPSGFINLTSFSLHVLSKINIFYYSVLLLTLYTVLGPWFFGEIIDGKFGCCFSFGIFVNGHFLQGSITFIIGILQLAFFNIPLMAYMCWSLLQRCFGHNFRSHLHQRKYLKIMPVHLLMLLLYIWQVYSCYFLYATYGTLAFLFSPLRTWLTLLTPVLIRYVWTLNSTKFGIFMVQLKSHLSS
UniProt Q8NBN3: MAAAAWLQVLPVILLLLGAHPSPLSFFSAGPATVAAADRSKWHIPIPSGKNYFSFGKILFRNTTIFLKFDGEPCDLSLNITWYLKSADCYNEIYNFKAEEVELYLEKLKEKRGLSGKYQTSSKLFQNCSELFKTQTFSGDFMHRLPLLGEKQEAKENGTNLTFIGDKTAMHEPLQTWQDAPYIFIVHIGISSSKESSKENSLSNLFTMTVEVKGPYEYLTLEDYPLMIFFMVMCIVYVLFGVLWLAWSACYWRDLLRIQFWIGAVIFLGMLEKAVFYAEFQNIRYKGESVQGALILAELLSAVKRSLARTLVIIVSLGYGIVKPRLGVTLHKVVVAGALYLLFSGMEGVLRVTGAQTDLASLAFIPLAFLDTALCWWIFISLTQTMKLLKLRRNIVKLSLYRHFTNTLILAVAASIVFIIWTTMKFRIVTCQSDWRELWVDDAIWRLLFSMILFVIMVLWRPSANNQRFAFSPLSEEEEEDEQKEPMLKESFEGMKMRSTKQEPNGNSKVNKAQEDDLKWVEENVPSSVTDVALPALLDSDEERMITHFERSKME
UniProt Q9BVC6: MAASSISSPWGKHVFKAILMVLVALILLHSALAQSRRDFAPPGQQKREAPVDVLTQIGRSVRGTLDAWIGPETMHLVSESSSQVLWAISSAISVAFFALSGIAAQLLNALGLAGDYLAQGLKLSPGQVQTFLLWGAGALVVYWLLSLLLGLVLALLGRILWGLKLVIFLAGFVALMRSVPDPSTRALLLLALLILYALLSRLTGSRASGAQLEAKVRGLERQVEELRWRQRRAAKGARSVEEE
UniProt A5PLL7: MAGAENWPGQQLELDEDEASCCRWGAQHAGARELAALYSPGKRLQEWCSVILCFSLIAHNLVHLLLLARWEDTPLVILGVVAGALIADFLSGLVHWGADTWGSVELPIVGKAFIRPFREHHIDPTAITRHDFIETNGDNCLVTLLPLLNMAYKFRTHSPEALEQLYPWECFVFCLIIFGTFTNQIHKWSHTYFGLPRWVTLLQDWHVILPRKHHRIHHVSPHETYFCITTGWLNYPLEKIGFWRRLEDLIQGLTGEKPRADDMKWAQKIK
UniProt Q96A57: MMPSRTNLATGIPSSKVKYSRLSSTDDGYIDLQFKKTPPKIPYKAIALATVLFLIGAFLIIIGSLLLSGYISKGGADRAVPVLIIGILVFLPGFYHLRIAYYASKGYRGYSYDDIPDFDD
UniProt P42166: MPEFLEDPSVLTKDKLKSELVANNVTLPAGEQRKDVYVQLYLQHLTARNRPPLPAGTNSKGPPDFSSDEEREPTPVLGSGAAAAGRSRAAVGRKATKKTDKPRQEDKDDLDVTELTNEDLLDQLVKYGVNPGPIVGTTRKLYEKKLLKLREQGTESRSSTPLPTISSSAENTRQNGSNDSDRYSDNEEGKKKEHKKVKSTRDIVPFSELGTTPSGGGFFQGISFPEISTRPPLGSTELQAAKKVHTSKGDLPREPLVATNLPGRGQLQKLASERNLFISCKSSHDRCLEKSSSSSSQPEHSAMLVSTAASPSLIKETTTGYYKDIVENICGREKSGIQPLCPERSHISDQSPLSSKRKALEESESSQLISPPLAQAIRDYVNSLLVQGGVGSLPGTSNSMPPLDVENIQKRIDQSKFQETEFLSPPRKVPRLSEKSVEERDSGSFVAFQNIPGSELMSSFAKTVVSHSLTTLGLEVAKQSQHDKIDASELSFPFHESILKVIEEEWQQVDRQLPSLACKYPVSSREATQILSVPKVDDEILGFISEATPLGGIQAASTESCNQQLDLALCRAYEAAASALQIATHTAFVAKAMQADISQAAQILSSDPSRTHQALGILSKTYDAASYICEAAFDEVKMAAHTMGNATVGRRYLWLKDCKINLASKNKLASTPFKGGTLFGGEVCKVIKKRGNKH
UniProt Q9NZR1: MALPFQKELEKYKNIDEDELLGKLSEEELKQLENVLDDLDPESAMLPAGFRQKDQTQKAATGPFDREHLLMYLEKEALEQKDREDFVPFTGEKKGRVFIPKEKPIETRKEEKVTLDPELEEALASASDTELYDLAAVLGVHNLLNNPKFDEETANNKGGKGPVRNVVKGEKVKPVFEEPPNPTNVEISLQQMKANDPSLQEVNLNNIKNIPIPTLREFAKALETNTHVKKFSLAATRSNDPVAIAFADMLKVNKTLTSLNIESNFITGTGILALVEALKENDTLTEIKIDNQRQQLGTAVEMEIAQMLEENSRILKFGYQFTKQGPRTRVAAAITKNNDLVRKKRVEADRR
UniProt Q9Y320, whole entry, looked up: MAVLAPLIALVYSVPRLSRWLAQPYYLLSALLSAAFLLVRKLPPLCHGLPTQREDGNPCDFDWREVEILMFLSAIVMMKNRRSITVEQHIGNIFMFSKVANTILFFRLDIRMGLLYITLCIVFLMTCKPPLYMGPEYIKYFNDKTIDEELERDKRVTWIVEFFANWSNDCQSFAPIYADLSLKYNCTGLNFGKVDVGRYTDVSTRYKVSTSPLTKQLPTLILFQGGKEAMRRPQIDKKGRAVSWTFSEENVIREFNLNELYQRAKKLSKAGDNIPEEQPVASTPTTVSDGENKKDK
UniProt Q9Y2S6, whole entry, looked up: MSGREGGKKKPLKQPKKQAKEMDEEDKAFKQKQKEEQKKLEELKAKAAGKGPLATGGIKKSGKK
UniProt Q9H0V1: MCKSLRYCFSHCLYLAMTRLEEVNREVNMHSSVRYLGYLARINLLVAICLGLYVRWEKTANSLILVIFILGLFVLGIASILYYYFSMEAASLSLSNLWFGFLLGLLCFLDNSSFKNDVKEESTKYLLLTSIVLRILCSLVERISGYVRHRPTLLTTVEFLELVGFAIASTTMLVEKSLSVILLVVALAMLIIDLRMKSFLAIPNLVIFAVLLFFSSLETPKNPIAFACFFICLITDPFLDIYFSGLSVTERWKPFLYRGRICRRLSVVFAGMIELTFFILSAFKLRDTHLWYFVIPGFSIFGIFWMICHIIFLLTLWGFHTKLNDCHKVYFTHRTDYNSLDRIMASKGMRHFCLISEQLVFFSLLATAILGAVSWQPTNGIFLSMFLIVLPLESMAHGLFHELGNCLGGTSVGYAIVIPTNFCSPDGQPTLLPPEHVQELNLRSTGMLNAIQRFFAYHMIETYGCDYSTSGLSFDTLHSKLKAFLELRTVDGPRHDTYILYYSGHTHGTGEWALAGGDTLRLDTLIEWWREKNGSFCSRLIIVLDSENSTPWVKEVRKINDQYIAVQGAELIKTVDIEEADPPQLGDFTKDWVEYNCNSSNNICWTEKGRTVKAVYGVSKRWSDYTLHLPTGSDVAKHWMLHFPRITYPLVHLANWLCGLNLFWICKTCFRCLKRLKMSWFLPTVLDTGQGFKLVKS
UniProt P57088: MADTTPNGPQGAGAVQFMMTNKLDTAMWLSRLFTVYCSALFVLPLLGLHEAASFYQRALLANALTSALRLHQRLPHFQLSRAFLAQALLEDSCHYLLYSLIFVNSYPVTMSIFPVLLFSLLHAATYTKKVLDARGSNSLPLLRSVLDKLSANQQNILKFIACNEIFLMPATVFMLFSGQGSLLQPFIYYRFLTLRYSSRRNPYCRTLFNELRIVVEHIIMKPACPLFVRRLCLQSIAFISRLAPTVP
UniProt Q5BJF2, whole entry, looked up: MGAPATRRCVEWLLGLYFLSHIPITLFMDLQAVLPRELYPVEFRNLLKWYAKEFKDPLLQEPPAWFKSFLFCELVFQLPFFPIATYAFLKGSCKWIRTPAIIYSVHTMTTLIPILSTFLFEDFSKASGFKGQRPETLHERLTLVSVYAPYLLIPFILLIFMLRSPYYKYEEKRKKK
UniProt Q96SK2: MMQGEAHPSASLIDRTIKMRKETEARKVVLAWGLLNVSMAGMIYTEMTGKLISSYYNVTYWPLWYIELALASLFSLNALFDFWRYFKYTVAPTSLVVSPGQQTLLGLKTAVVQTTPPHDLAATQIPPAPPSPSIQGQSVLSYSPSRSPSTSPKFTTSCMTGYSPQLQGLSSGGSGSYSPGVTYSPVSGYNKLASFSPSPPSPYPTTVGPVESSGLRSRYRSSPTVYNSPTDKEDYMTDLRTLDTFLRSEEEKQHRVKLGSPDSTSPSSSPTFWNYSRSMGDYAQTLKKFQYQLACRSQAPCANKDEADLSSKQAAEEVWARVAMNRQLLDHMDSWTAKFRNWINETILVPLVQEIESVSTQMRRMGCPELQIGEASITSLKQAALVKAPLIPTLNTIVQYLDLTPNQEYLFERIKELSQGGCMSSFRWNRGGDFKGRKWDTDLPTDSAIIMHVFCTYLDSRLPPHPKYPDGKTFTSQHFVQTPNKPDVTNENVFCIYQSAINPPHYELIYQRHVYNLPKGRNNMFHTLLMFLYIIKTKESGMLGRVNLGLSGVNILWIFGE

Tests used:
Assay in all cases: log2 fold change, soluble protein after heating vs DMSO (PISA); higher = thermal stabilisation; K562 cells, 10 uM, 30 min; active = over 0.2 and 3.5 SD of the protein, either way, in both replicates (recomputed)
IRAK-1-4 Inhibitor I = compound: C1COCCN1CCN2C3=CC=CC=C3N=C2NC(=O)C4=CC(=CC=C4)[N+](=O)[O-] [IRAK-1-4 Inhibitor I]
Method in brief: (§1)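 Quantification of soluble protein used TMTpro 16plex LC-MS/MS, with channel sums equalised. Samples were the supernatant after 21,000xg for 90 min of pooled aliquots from K562 cells (2×10^6 cells/mL) treated with 10 μM compound for 30 min, heated for 3 min over 48°C-58°C, and extracted in PBS with 0.5% NP-40 at 4°C. Values, from duplicates, describe thermal stability against control samples on a log2 fold-change scale.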

ibrutinib = compound: C=CC(=O)N1CCC[C@@H](n2nc(-c3ccc(Oc4ccccc4)cc3)c3c(N)ncnc32)C1 [ibrutinib]
Method in brief: as §1

[1] = compound: CC(=O)c1cnc2ccc(-c3cc(Cl)c(O)c(Cl)c3)nc2c1N[C@H]1CC[C@H](CN(C)C)CC1
Method in brief: as §1

ralimetinib = compound: CC(C)(C)Cn1c(N)nc2ccc(-c3[nH]c(C(C)(C)C)nc3-c3ccc(F)cc3)nc21 [ralimetinib]
Method in brief: as §1

[2] = compound: CC(C)(O)CC(=O)NCCn1ccc2ncnc(Nc3ccc(Oc4cccc(C(F)(F)F)c4)c(Cl)c3)c21
Method in brief: as §1

[3] = compound: CC(C)C1=C2N=C(C=C(N2N=C1)NCC3=CC=CC=C3)NCCCCCCN
Method in brief: as §1

[4] = compound: CC(C)C[C@@H](C=O)NC(=O)[C@H](CC(C)C)NC(=O)[C@H](CC(C)C)NC(=O)OCc1ccccc1
Method in brief: as §1

pinometostat = compound: CC(C)N(C[C@H]1O[C@@H](n2cnc3c(N)ncnc32)[C@H](O)[C@@H]1O)[C@H]1C[C@@H](CCc2nc3cc(C(C)(C)C)ccc3[nH]2)C1 [pinometostat]
Method in brief: as §1

[5] = compound: CC1=C(C(CC(=O)N1)C2=CC=C(C=C2)C(F)(F)F)C(=O)NC3=C(C=C4C(=C3)C=NN4)F
Method in brief: as §1

[6] = compound: CC1=C(C2=C(C=C1)C(=O)C3=CC=CC=C3N2CCCN)C
Method in brief: as §1

[7] = compound: CC1=C(C=C(C=C1)NC(=O)C2=CC(=CC=C2)C(C)(C)C#N)NC3=CC4=C(C=C3)N=CN(C4=O)C
Method in brief: as §1

[8] = compound: CC1=C(C=C(C=C1)NC(=O)C2=CC(=CC=C2)N(C)C)NC(=O)C3=CC=C(C=C3)O
Method in brief: as §1

[9] = compound: CC1=CC=C(C=C1)SC2=C3C=C(SC3=CN=C2)C(=O)N
Method in brief: as §1

[10] = compound: CC1=NC(=CC=C1)C2=C(N=C(N2)C(C)(C)C)C3=CC4=NC=CN=C4C=C3
Method in brief: as §1

Nexturastat A = compound: CCCCN(Cc1ccc(C(=O)NO)cc1)C(=O)Nc1ccccc1 [Nexturastat A]
Method in brief: as §1

vemurafenib = compound: CCCS(=O)(=O)Nc1ccc(F)c(C(=O)c2c[nH]c3ncc(-c4ccc(Cl)cc4)cc23)c1F [vemurafenib]
Method in brief: as §1

[11] = compound: CCCS(=O)(=O)Nc1ccc(F)c(C(=O)c2c[nH]c3ncc(Cl)cc23)c1F
Method in brief: as §1

[12] = compound: CCCc1cc(C)[nH]c(=O)c1CNC(=O)c1cc(-c2ccnc(N3CCN(C)CC3)c2)cc2c1cnn2C(C)C
Method in brief: as §1

givinostat = compound: CCN(CC)Cc1ccc2cc(COC(=O)Nc3ccc(C(=O)NO)cc3)ccc2c1 [givinostat]
Method in brief: as §1

barasertib = compound: CCN(CCCOc1ccc2c(Nc3cc(CC(=O)Nc4cccc(F)c4)[nH]n3)ncnc2c1)CCOP(=O)(O)O [barasertib]
Method in brief: as §1

Measured: log2 fold change

TMEM38B (UniProt Q9NVV0)
inactive: IRAK-1-4 Inhibitor I -0.003 | ibrutinib 0.03 | [1] -0.042 | ralimetinib 0.013 | [2] 0.017 | [3] 0.059 | [4] -0.005 | pinometostat -0.003 | [5] 0.027 | [6] 0.008 | [7] -0.034 | [8] -0.01 | [9] 0.01 | [10] 0.016 | Nexturastat A -0.038 | vemurafenib -0.029 | [11] 0.001 | [12] -0.229 | givinostat 0 | barasertib -0.047

TMEM165 (UniProt Q9HC07)
inactive: IRAK-1-4 Inhibitor I -0.008 | ibrutinib -0.044 | [1] -0.023 | ralimetinib 0 | [2] 0.015 | [3] -0.001 | [4] -0.079 | pinometostat 0.003 | [5] -0.017 | [6] -0.031 | [7] -0.075 | [8] 0.035 | [9] 0.027 | [10] 0.015 | Nexturastat A 0 | vemurafenib -0.138 | [11] 0.026 | [12] 0.179 | givinostat 0.051 | barasertib -0.047

TMEM62 (UniProt Q0P6H9)
inactive: IRAK-1-4 Inhibitor I 0.018 | ibrutinib 0.075 | [1] -0.003 | ralimetinib -0.006 | [2] -0.005 | [3] 0.059 | [4] -0.044 | pinometostat -0.006 | [5] 0.018 | [6] 0.048 | [7] 0.013 | [8] -0.042 | [9] 0.086 | [10] -0.039 | Nexturastat A -0.046 | vemurafenib -0.044 | [11] 0.07 | [12] 0.119 | givinostat -0.012 | barasertib -0.016

TMEM87A (UniProt Q8NBN3)
inactive: IRAK-1-4 Inhibitor I 0.027 | ibrutinib 0.007 | [1] -0.009 | ralimetinib -0.061 | [2] -0.016 | [3] -0.043 | [4] -0.013 | pinometostat -0.004 | [5] -0.038 | [6] -0.014 | [7] -0.023 | [8] 0.003 | [9] -0.019 | [10] 0.02 | Nexturastat A 0.013 | vemurafenib -0.023 | [11] -0.005 | [12] -0.053 | givinostat -0.004 | barasertib 0.012

TMEM109 (UniProt Q9BVC6)
inactive: IRAK-1-4 Inhibitor I 0.003 | ibrutinib 0.024 | [1] 0.015 | ralimetinib -0.029 | [2] 0.041 | [3] 0.038 | [4] -0.017 | pinometostat -0.073 | [5] -0.001 | [6] 0.06 | [7] 0.033 | [8] 0.017 | [9] -0.016 | [10] 0.022 | Nexturastat A -0.02 | vemurafenib -0.055 | [11] -0.037 | [12] -0.066 | givinostat -0.015 | barasertib -0.004

TMEM189 (UniProt A5PLL7)
inactive: IRAK-1-4 Inhibitor I 0.063 | ibrutinib 0.073 | [1] 0.095 | ralimetinib 0.034 | [2] -0.278 | [3] 0.018 | [4] -0.047 | pinometostat -0.01 | [5] 0.046 | [6] 0 | [7] 0.126 | [8] -0.108 | [9] 0.043 | [10] 0.047 | Nexturastat A 0.104 | vemurafenib 0.013 | [11] 0.045 | [12] -0.043 | givinostat 0.12 | barasertib -0.029

TMA16 (UniProt Q96EY4)
inactive: IRAK-1-4 Inhibitor I -0.057 | ibrutinib 0.024 | [1] 0.108 | ralimetinib 0.095 | [2] 0.003 | [3] 0.039 | [4] 0.077 | pinometostat 0.268 | [5] -0.046 | [6] -0.166 | [7] 0.064 | [8] -0.106 | [9] -0.013 | [10] -0.112 | Nexturastat A 0.154 | vemurafenib -0.105 | [11] -0.079 | [12] 0.103 | givinostat 0.036 | barasertib -0.109

TMEM230 isoform 2 (UniProt Q96A57)
inactive: IRAK-1-4 Inhibitor I 0.088 | ibrutinib -0.024 | [1] -0.008 | ralimetinib 0.028 | [2] 0.006 | [3] -0.007 | [4] -0.029 | pinometostat -0.012 | [5] 0.046 | [6] -0.054 | [7] 0.035 | [8] 0.024 | [9] 0.063 | [10] 0.045 | Nexturastat A -0.049 | vemurafenib -0.021 | [11] -0.015 | [12] -0.034 | givinostat -0.013 | barasertib -0.126

TMPO (UniProt P42166)
inactive: IRAK-1-4 Inhibitor I 0.052 | ibrutinib 0 | [1] 0.047 | ralimetinib 0.039 | [2] -0.077 | [3] -0.176 | [4] -0.015 | pinometostat -0.012 | [5] 0.04 | [6] -0.016 | [7] 0.003 | [8] 0.002 | [9] -0.019 | [10] 0.011 | Nexturastat A -0.01 | vemurafenib -0.025 | [11] 0.009 | [12] -0.03 | givinostat 0.07 | barasertib 0.028

TMOD2 (UniProt Q9NZR1)
inactive: IRAK-1-4 Inhibitor I -0.03 | ibrutinib 0.06 | [1] 0.061 | ralimetinib -0.072 | [2] -0.048 | [3] 0.026 | [4] -0.441 | pinometostat -0.073 | [5] -0.097 | [6] 0.133 | [7] -0.067 | [8] -0.344 | [9] 0.092 | [10] 0.074 | Nexturastat A -0.097 | vemurafenib 0.258 | [11] -0.006 | [12] 0.031 | givinostat -0.198 | barasertib 0.037

TMX2 (UniProt Q9Y320)
inactive: IRAK-1-4 Inhibitor I 0.016 | ibrutinib 0.022 | [1] 0.033 | ralimetinib -0.048 | [2] -0.044 | [3] -0.148 | [4] 0.038 | pinometostat -0.039 | [5] -0.017 | [6] 0.014 | [7] -0.052 | [8] 0.011 | [9] 0.062 | [10] -0.005 | Nexturastat A -0.05 | vemurafenib -0.001 | [11] -0.03 | [12] -0.038 | givinostat 0.016 | barasertib -0.002

TMA7 (UniProt Q9Y2S6)
inactive: IRAK-1-4 Inhibitor I 0.054 | ibrutinib 0.017 | [1] 0.039 | ralimetinib -0.082 | [2] 0.005 | [3] 0.068 | [4] -0.006 | pinometostat -0.063 | [5] 0.03 | [6] -0.01 | [7] -0.104 | [8] 0.024 | [9] -0.02 | [10] -0.003 | Nexturastat A -0.005 | vemurafenib -0.02 | [11] -0.059 | [12] -0.043 | givinostat -0.083 | barasertib 0.023

TMEM168 (UniProt Q9H0V1)
inactive: IRAK-1-4 Inhibitor I 0.029 | ibrutinib 0.007 | [1] -0.015 | ralimetinib 0.029 | [2] -0.042 | [3] -0.005 | [4] -0.031 | pinometostat -0.044 | [5] -0.011 | [6] -0.018 | [7] 0.011 | [8] -0.012 | [9] -0.013 | [10] -0.007 | Nexturastat A -0.22 | vemurafenib 0.015 | [11] -0.044 | [12] -0.065 | givinostat -0.004 | barasertib -0.043

2 records picked at random from the list so far:
TMOD2 (UniProt Q9NZR1)
inactive: IRAK-1-4 Inhibitor I -0.03 | ibrutinib 0.06 | [1] 0.061 | ralimetinib -0.072 | [2] -0.048 | [3] 0.026 | [4] -0.441 | pinometostat -0.073 | [5] -0.097 | [6] 0.133 | [7] -0.067 | [8] -0.344 | [9] 0.092 | [10] 0.074 | Nexturastat A -0.097 | vemurafenib 0.258 | [11] -0.006 | [12] 0.031 | givinostat -0.198 | barasertib 0.037

TMX2 (UniProt Q9Y320)
inactive: IRAK-1-4 Inhibitor I 0.016 | ibrutinib 0.022 | [1] 0.033 | ralimetinib -0.048 | [2] -0.044 | [3] -0.148 | [4] 0.038 | pinometostat -0.039 | [5] -0.017 | [6] 0.014 | [7] -0.052 | [8] 0.011 | [9] 0.062 | [10] -0.005 | Nexturastat A -0.05 | vemurafenib -0.001 | [11] -0.03 | [12] -0.038 | givinostat 0.016 | barasertib -0.002

Additional results follow:

TMEM33 (UniProt P57088)
inactive: IRAK-1-4 Inhibitor I 0.016 | ibrutinib 0.04 | [1] -0.007 | ralimetinib -0.021 | [2] -0.044 | [3] -0.011 | [4] -0.091 | pinometostat -0.028 | [5] -0.029 | [6] 0.05 | [7] 0.067 | [8] -0.045 | [9] 0.014 | [10] -0.001 | Nexturastat A -0.077 | vemurafenib 0.03 | [11] 0.009 | [12] -0.036 | givinostat 0.021 | barasertib -0.052

TMEM97 (UniProt Q5BJF2)
inactive: IRAK-1-4 Inhibitor I 0.015 | ibrutinib 0.028 | [1] -0.034 | ralimetinib 0.02 | [2] 0.002 | [3] 0.126 | [4] -0.219 | pinometostat -0.002 | [5] 0.047 | [6] -0.018 | [7] 0.007 | [8] 0.016 | [9] 0.035 | [10] -0.036 | Nexturastat A -0.058 | vemurafenib -0.035 | [11] -0.091 | [12] -0.059 | givinostat 0.004 | barasertib -0.017

TMEM209 (UniProt Q96SK2)
inactive: IRAK-1-4 Inhibitor I 0.003 | ibrutinib 0 | [1] -0.098 | ralimetinib 0.018 | [2] -0.107 | [3] -0.151 | [4] 0.076 | pinometostat -0.006 | [5] -0.009 | [6] 0 | [7] -0.016 | [8] 0.063 | [9] 0.002 | [10] 0.013 | Nexturastat A -0.026 | vemurafenib 0.034 | [11] 0.011 | [12] -0.069 | givinostat -0.019 | barasertib 0.034
